For at least one entry, the source does not settle the construct or the ends of the probe.
Test system: NtAGL66 (Nicotiana tabacum)
Experiment: EMSA
Settings: 0, 0.06, 0.6 and 11.92 ug protein, 1 nM DNA, 5 mM Mg2+

“AGACGGATCCATTGCAATAAAAGAAAAAAATCCTGTAGGAATTCGGA (double strand) [AGL66_EMSA_Probe]”: binds.
